± gives the standard deviation of the averaged measurements. This is one part of the list.
Compound: Nc1nc2c(ncn2[C@@H]2O[C@H](COP(=O)(O)OP(=O)(O)OP(=O)(O)O)[C@@H](O)[C@H]2O)c(=O)[nH]1 [guanosine triphosphate]
Assay: NP40-soluble protein abundance relative to vehicle (solubility fold change) (ratio); higher = more soluble protein in presence of GTP
Summary of the method: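 Data come from three independent experiments in which Dounce-homogenised Jurkat crude lysate was treated at eight concentrations from 0.1 to 10 mM. Treatment ran 10 min at room temperature and then 3 min at 37 °C, after which 0.8% NP40 and benzonase were added for 60 min at 4 °C before ultracentrifugation. The supernatant underwent TMT labelling and LC-MS/MS, and vsn-normalised intensities were expressed as fold change against the detergent-processed vehicle in each replicate.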

Protein sequences, listed by entry. Tags and fused reporters are not part of them. Lines headed by an entry give the natural chain unless they say otherwise; changes in a name come on top.
UniProt Q5EBM0: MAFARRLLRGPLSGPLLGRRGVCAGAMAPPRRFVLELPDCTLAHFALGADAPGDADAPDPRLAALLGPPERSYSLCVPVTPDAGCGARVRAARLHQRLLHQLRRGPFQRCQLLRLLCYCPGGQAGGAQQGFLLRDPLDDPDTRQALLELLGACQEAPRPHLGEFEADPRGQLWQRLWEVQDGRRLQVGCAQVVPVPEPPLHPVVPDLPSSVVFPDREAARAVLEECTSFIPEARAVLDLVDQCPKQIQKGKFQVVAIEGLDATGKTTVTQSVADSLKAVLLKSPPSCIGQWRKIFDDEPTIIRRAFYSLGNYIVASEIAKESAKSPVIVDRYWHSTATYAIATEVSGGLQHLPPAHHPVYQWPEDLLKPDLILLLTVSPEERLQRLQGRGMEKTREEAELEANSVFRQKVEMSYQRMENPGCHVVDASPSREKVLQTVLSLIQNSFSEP
UniProt Q32MZ4: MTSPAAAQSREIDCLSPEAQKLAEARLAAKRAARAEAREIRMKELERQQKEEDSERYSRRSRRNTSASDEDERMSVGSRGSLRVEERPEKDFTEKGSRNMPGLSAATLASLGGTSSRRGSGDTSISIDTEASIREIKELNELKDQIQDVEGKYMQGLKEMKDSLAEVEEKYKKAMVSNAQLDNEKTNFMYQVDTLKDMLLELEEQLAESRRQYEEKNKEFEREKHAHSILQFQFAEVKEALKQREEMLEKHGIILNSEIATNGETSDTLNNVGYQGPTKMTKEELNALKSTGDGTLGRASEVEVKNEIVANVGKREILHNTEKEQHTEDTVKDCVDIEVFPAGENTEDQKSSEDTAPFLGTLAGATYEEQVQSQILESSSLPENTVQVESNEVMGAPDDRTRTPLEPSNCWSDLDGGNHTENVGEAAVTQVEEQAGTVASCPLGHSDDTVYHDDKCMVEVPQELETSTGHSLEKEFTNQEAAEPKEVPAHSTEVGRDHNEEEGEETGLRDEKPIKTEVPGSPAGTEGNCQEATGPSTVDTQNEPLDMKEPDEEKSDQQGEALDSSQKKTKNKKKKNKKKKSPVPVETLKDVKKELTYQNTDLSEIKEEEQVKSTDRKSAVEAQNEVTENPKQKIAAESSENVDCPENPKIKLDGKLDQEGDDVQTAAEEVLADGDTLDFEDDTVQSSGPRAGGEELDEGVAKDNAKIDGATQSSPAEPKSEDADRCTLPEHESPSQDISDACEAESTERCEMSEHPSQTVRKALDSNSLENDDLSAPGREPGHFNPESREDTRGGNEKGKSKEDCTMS
UniProt Q14694, whole entry: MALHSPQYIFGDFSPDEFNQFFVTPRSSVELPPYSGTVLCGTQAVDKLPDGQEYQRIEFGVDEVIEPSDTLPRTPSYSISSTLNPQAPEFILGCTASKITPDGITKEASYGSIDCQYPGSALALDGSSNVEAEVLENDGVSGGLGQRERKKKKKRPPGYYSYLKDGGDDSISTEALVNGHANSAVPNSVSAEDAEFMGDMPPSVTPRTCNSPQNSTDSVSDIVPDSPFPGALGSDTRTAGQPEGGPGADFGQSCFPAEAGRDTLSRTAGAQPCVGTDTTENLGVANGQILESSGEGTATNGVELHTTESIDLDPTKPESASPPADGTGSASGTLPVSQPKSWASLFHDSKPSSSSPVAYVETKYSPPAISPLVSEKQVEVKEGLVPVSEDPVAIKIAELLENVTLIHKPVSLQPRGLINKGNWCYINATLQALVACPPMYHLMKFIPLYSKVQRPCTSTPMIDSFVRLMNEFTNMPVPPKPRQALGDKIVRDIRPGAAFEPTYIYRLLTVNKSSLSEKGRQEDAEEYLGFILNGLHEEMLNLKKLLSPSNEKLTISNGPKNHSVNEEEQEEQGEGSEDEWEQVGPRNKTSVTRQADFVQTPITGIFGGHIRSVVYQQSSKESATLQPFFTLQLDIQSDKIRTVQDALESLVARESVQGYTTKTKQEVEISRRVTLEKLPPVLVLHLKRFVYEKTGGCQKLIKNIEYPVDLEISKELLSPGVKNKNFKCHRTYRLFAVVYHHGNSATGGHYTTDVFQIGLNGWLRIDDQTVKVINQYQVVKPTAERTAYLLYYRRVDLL
UniProt Q16186: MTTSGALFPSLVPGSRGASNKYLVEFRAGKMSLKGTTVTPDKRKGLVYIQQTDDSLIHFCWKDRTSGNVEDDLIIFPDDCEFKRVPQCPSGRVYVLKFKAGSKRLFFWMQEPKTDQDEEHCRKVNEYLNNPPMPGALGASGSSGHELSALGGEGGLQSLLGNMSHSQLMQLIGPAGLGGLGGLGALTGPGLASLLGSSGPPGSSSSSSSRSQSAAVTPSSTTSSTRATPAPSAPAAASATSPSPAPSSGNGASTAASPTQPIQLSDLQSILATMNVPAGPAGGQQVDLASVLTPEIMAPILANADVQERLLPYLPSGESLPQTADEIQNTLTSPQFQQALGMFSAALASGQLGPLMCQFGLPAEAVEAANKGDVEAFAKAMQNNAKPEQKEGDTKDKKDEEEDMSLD
UniProt Q16643: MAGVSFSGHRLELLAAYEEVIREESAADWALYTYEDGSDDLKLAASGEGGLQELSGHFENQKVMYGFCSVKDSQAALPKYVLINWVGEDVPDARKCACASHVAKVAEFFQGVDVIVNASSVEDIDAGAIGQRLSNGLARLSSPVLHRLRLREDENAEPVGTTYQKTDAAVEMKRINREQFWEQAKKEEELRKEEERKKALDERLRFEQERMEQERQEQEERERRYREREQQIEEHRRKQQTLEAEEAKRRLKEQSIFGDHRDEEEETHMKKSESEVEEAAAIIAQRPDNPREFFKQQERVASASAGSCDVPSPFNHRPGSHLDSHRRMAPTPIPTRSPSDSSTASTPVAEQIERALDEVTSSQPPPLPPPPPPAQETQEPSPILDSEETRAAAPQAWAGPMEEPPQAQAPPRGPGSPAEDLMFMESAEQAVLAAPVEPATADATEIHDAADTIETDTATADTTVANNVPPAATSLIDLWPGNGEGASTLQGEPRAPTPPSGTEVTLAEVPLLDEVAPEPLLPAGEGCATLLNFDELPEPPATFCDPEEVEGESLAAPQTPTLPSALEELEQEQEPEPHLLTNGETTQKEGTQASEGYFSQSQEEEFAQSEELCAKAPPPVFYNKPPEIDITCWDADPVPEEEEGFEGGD
UniProt Q8IVH4: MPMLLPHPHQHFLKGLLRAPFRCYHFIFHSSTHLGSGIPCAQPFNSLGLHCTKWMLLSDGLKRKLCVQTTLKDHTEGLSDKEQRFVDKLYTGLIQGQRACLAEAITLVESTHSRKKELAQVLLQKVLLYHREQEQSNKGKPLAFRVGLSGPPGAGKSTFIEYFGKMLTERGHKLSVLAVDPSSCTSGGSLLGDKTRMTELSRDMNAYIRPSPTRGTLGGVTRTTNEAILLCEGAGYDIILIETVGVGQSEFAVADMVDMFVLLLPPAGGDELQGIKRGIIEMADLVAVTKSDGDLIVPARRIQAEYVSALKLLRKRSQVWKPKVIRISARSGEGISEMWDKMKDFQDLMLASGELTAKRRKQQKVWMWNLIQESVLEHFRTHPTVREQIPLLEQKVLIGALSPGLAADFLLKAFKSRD
UniProt Q29RF7: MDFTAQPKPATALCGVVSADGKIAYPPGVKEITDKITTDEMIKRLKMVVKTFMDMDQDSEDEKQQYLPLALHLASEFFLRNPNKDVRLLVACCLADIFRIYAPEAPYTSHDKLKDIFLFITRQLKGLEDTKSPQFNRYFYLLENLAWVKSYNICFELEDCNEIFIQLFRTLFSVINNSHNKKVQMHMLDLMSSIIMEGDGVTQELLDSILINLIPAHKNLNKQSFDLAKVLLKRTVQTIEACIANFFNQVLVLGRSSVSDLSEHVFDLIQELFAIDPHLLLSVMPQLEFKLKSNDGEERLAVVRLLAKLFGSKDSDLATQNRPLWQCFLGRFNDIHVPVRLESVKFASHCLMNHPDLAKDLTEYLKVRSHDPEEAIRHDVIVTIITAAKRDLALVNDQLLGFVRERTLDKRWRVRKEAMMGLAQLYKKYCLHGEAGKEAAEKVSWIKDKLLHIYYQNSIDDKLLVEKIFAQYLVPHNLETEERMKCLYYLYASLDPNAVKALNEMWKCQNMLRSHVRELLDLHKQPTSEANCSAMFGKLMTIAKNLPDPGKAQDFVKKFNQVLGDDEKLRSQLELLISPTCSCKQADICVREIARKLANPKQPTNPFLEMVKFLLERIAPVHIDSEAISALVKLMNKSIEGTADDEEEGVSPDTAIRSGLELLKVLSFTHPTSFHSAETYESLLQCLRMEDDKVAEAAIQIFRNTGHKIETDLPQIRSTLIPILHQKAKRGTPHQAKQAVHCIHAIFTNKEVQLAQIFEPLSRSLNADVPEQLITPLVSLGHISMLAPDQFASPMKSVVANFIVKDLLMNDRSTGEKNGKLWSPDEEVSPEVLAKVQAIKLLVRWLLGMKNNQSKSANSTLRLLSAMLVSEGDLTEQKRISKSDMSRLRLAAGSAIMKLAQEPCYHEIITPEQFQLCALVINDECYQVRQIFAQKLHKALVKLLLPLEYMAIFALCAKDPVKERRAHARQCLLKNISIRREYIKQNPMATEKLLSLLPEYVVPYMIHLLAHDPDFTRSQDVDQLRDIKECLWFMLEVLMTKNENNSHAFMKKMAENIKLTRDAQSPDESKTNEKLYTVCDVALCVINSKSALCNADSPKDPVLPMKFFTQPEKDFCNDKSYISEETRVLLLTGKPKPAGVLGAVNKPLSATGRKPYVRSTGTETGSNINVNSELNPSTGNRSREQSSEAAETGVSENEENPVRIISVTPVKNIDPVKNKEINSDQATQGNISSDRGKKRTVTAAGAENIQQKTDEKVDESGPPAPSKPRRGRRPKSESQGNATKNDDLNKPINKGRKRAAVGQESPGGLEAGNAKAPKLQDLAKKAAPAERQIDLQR
UniProt Q16531, whole entry: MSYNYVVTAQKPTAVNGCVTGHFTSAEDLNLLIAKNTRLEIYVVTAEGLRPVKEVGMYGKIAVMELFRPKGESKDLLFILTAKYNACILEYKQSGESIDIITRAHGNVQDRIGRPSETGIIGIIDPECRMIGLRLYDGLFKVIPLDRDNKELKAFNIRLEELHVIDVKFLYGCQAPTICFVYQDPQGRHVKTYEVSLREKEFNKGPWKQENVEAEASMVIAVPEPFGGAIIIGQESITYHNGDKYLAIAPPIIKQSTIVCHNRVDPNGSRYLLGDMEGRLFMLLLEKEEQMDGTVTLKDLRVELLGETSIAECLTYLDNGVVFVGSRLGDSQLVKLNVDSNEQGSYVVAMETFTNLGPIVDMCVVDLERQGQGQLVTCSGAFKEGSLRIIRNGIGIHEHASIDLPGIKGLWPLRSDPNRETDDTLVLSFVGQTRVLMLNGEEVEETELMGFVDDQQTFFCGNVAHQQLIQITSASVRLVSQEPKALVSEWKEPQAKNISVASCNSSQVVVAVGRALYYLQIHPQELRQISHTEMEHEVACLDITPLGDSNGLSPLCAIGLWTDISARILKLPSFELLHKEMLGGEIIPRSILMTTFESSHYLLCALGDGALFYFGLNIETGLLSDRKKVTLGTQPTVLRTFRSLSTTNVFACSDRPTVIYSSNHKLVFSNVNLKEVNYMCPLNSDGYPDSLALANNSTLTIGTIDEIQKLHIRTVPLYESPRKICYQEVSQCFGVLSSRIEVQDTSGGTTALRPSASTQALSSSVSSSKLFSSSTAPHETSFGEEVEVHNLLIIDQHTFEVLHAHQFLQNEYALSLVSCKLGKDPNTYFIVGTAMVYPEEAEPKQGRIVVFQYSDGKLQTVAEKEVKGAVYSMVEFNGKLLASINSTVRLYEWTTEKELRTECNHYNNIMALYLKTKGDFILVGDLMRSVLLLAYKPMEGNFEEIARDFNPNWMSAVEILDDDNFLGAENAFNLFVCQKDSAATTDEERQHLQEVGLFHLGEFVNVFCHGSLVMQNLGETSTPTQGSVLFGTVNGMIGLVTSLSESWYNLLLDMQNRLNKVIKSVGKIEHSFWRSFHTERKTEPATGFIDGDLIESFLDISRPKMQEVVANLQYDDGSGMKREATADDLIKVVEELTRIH
UniProt Q15329: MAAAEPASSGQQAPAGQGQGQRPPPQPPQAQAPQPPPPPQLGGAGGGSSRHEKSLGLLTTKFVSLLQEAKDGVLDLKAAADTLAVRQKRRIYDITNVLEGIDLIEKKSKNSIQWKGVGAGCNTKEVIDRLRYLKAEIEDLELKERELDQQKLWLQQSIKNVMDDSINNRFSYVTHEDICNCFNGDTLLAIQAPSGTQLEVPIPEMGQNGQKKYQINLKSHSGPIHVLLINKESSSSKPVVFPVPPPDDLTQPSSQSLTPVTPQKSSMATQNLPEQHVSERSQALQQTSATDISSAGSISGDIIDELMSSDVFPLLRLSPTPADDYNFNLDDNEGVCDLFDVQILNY

Row | Target | NP40-soluble protein abundance (concentration: 0.1mM) | NP40-soluble protein abundance (concentration: 0.5mM) | NP40-soluble protein abundance (concentration: 1mM) | NP40-soluble protein abundance (concentration: 2mM) | NP40-soluble protein abundance (concentration: 4mM) | NP40-soluble protein abundance (concentration: 6mM) | NP40-soluble protein abundance (concentration: 8mM) | NP40-soluble protein abundance (concentration: 10mM)
1 | CMPK2 (UniProt Q5EBM0) | 1.02 ± 0.043 | 0.991 ± 0.031 | 0.972 ± 0.066 | 0.949 ± 0.034 | 0.94 ± 0.058 | 0.93 ± 0.079 | 0.917 ± 0.049 | 0.886 ± 0.081
2 | UniProt Q5JS54 and related entries | 0.88 ± 0.017 | 0.869 ± 0.039 | 0.944 ± 0.032 | 0.934 ± 0.022 | 0.911 ± 0.033 | 0.9391 ± 0.0056 | 0.865 ± 0.041 | 0.894 ± 0.041
3 | UniProt Q32MZ4 and related entries | 0.933 ± 0.06 | 0.955 ± 0.098 | 0.981 ± 0.061 | 0.962 ± 0.11 | 0.922 ± 0.061 | 0.959 ± 0.083 | 0.981 ± 0.061 | 1 ± 0.073
4 | ACSF3 (UniProt Q4G176) | 1.06 ± 0.066 | 1.06 ± 0.088 | 0.928 ± 0.037 | 0.94 ± 0.084 | 0.908 ± 0.058 | 0.913 ± 0.036 | 0.844 ± 0.033 | 0.845 ± 0.11
5 | UniProt Q5F1R6 and related entries | 0.975 ± 0.037 | 0.974 ± 0.051 | 1.03 ± 0.044 | 1.06 ± 0.062 | 1.08 ± 0.073 | 1.1 ± 0.09 | 1.21 ± 0.081 | 1.2 ± 0.15
6 | SEC23B (UniProt Q15437) | 1.07 ± 0.046 | 1.08 ± 0.055 | 0.943 ± 0.042 | 0.988 ± 0.085 | 0.97 ± 0.073 | 0.955 ± 0.055 | 0.925 ± 0.036 | 0.906 ± 0.088
7 | UniProt Q15029 and related entries | 1.04 ± 0.06 | 1.11 ± 0.092 | 1.11 ± 0.11 | 1.19 ± 0.16 | 1.28 ± 0.18 | 1.32 ± 0.21 | 1.35 ± 0.19 | 1.39 ± 0.2
8 | UniProt Q14694 and related entries | 1.01 ± 0.061 | 1.04 ± 0.025 | 1.04 ± 0.07 | 1.07 ± 0.06 | 1.17 ± 0.061 | 1.24 ± 0.035 | 1.28 ± 0.076 | 1.32 ± 0.078
9 | ADRM1 (UniProt Q16186) | 0.994 ± 0.046 | 0.96 ± 0.069 | 1.09 ± 0.063 | 1.12 ± 0.078 | 1.17 ± 0.12 | 1.1 ± 0.098 | 1.17 ± 0.14 | 1.14 ± 0.19
10 | UniProt Q5SWX8 and related entries | 1.07 ± 0.052 | 1.09 ± 0.11 | 0.997 ± 0.086 | 1.03 ± 0.11 | 1 ± 0.073 | 0.9717 ± 0.0092 | 0.939 ± 0.054 | 0.988 ± 0.074
11 | UniProt Q3V6T2 and related entries | 1.03 ± 0.034 | 1.02 ± 0.071 | 1.03 ± 0.058 | 1.02 ± 0.06 | 1.01 ± 0.046 | 0.988 ± 0.063 | 1.01 ± 0.099 | 0.997 ± 0.057
12 | HS1BP3 (UniProt Q53T59) | 1.04 ± 0.13 | 1.03 ± 0.12 | 1.03 ± 0.03 | 1.06 ± 0.21 | 0.954 ± 0.15 | 0.995 ± 0.19 | 0.975 ± 0.13 | 0.921 ± 0.1
13 | ZC3H13 (UniProt Q5T200) | 1.01 ± 0.055 | 1.02 ± 0.063 | 1.07 ± 0.054 | 1.08 ± 0.063 | 1.12 ± 0.059 | 1.12 ± 0.055 | 1.24 ± 0.099 | 1.18 ± 0.1
14 | GNPTAB (UniProt Q3T906) | 0.997 ± 0.085 | 1.03 ± 0.068 | 1.08 ± 0.043 | 1.1 ± 0.035 | 1.08 ± 0.055 | 1.12 ± 0.02 | 1.14 ± 0.11 | 1.17 ± 0.079
15 | UniProt Q16643 and related entries | 0.894 ± 0.061 | 0.888 ± 0.11 | 0.903 ± 0.11 | 0.905 ± 0.11 | 1.08 ± 0.1 | 1.24 ± 0.11 | 1.52 ± 0.15 | 1.81 ± 0.12
16 | UniProt Q17RN3 and related entries | 1.1 ± 0.026 | 1.04 ± 0.027 | 0.967 ± 0.011 | 1.07 ± 0.054 | 1.04 ± 0.075 | 0.9845 ± 0.0052 | 0.974 ± 0.051 | 0.991 ± 0.037
17 | UniProt Q14C86 and related entries | 0.984 ± 0.049 | 0.977 ± 0.053 | 0.939 ± 0.035 | 0.915 ± 0.026 | 0.927 ± 0.025 | 0.907 ± 0.032 | 0.911 ± 0.036 | 0.887 ± 0.024
18 | E2F4 (UniProt Q16254) | 1.07 ± 0.053 | 1 ± 0.068 | 1.08 ± 0.074 | 1.08 ± 0.096 | 1.07 ± 0.074 | 1.08 ± 0.092 | 1.1 ± 0.032 | 1.1 ± 0.073
19 | BEND3 (UniProt Q5T5X7) | 1.05 ± 0.043 | 0.98 ± 0.075 | 0.995 ± 0.038 | 1.04 ± 0.08 | 1.01 ± 0.081 | 0.968 ± 0.099 | 1.05 ± 0.079 | 0.989 ± 0.07
20 | Q5T063 and related entries (UniProt Q9NZJ6) | 0.965 ± 0.042 | 0.992 ± 0.088 | 0.945 ± 0.049 | 0.946 ± 0.071 | 0.915 ± 0.1 | 0.897 ± 0.066 | 0.917 ± 0.013 | 0.889 ± 0.037
21 | Q495G5 and related entries (UniProt Q8IVH4) | 1.1 ± 0.031 | 1.09 ± 0.026 | 1 ± 0.11 | 0.984 ± 0.067 | 0.957 ± 0.063 | 0.987 ± 0.055 | 0.909 ± 0.07 | 0.927 ± 0.079
22 | PDS5A (UniProt Q29RF7) | 1 ± 0.011 | 1.01 ± 0.018 | 0.973 ± 0.013 | 0.956 ± 0.01 | 0.952 ± 0.014 | 0.947 ± 0.019 | 0.951 ± 0.019 | 0.937 ± 0.024
23 | CCDC6 (UniProt Q16204) | 0.881 ± 0.034 | 0.87 ± 0.021 | 0.971 ± 0.026 | 0.961 ± 0.025 | 0.911 ± 0.019 | 0.911 ± 0.043 | 0.913 ± 0.019 | 0.99 ± 0.07
24 | UniProt Q15056 and related entries | 0.879 ± 0.047 | 0.887 ± 0.077 | 0.924 ± 0.06 | 0.909 ± 0.091 | 0.876 ± 0.081 | 0.894 ± 0.076 | 0.892 ± 0.078 | 0.944 ± 0.064
25 | Q5STZ8 and related entries (UniProt Q8NE71) | 1.03 ± 0.023 | 1.02 ± 0.019 | 0.96 ± 0.053 | 0.987 ± 0.043 | 0.993 ± 0.06 | 0.997 ± 0.046 | 0.994 ± 0.066 | 0.984 ± 0.092
26 | UniProt Q562F6 and related entries | 0.9992 ± 0.0099 | 1.02 ± 0.087 | 1.04 ± 0.12 | 1.06 ± 0.038 | 0.979 ± 0.029 | 0.966 ± 0.047 | 1.03 ± 0.047 | 1.02 ± 0.045
27 | UniProt Q15906 and related entries | 1.01 ± 0.056 | 1.13 ± 0.076 | 1.09 ± 0.13 | 1.22 ± 0.24 | 1.3 ± 0.23 | 1.38 ± 0.23 | 1.46 ± 0.36 | 1.45 ± 0.34
28 | NONO (UniProt Q15233) | 1.01 ± 0.054 | 1.01 ± 0.056 | 1.02 ± 0.11 | 1.12 ± 0.12 | 1.34 ± 0.16 | 1.51 ± 0.16 | 1.58 ± 0.15 | 1.55 ± 0.2
29 | UniProt Q16531 and related entries | 1.01 ± 0.041 | 1.06 ± 0.087 | 0.959 ± 0.036 | 1.01 ± 0.1 | 0.974 ± 0.078 | 1 ± 0.085 | 0.926 ± 0.033 | 0.931 ± 0.058
30 | UniProt Q15329 and related entries | 0.927 ± 0.13 | 0.9158 ± 0.0081 | 0.957 ± 0.17 | 0.92 ± 0.18 | 0.99 ± 0.2 | 0.944 ± 0.16 | 0.905 ± 0.1 | 0.933 ± 0.092

2 records drawn at random from the list so far, as already listed:
Row | Target | NP40-soluble protein abundance (concentration: 0.1mM) | NP40-soluble protein abundance (concentration: 0.5mM) | NP40-soluble protein abundance (concentration: 1mM) | NP40-soluble protein abundance (concentration: 2mM) | NP40-soluble protein abundance (concentration: 4mM) | NP40-soluble protein abundance (concentration: 6mM) | NP40-soluble protein abundance (concentration: 8mM) | NP40-soluble protein abundance (concentration: 10mM)
29 | UniProt Q16531 and related entries | 1.01 ± 0.041 | 1.06 ± 0.087 | 0.959 ± 0.036 | 1.01 ± 0.1 | 0.974 ± 0.078 | 1 ± 0.085 | 0.926 ± 0.033 | 0.931 ± 0.058
3 | UniProt Q32MZ4 and related entries | 0.933 ± 0.06 | 0.955 ± 0.098 | 0.981 ± 0.061 | 0.962 ± 0.11 | 0.922 ± 0.061 | 0.959 ± 0.083 | 0.981 ± 0.061 | 1 ± 0.073
